# Inconclusive means that the source gave no clear call. Such entries were picked first, then a sample of the others. Calls of active or inactive are those of the source.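 The calls were made as follows: active = Loss of cell signal with fitted half-effect dose at or below twice the top valid tested dose; inconclusive = Poor fit, or flat fit from -70 to -30 percent; inactive = Half-effect above limit, rising signal, or flat within 30 percent.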
# Test: HEK293T cell cytotoxicity, dose response, cytotoxicity control for HIV Vif inhibitor project, cherry-picks (AID 652208);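 also: 0% = median neutral control wells and -100% = median staurosporine control wells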
# Settings: HEK293T viability, CellTiter-Glo luminescence, 24 h; at 26 µM (top of the series)
row,SMILES,"activity change, negative = cytotoxicity"
1,CCOC(=O)c1[nH]c2c(c1C)C(=O)CC(c1ccco1)C2 (stereo not given),inconclusive: -14.2%
2,COc1cccc(-c2cc(=O)c3cc(NC(=O)c4ccccc4)ccc3[nH]2)c1,inconclusive: -41.2%
3,COC(=O)Nc1nc2ccc(Sc3ccccc3)cc2[nH]1,inconclusive: -26%
4,COC(=O)c1ccc(NCc2cc(O)ccc2O)cc1,inconclusive: -34.9%
5,COc1ccc(/C=C/C(=O)c2cc(F)ccc2OC(=O)c2ccccc2OC)cc1OC,inconclusive: -35.9%
6,CCN1CCc2c(sc(N)c2C(N)=O)C1,inactive: 0.158%
7,CCCSc1ccc2nc(NC(=O)OC)[nH]c2c1,inconclusive: -22%
8,COc1ccc(NC(=O)c2ccccc2NC(=O)CSc2ccc(C)cc2)cc1,inactive: -13.9%
9,CCOc1ccccc1NC(=O)Cn1nnc(C(=O)NCc2cccs2)c1N,inconclusive: -13.7%
10,CCN(CC)C(=O)c1ccc(C(=O)c2c(C)cc(C)cc2C)cc1,inactive: -14.2%

# Reprinted: entries 7 to 8
row,SMILES,"activity change, negative = cytotoxicity"
7,CCCSc1ccc2nc(NC(=O)OC)[nH]c2c1,inconclusive: -22%
8,COc1ccc(NC(=O)c2ccccc2NC(=O)CSc2ccc(C)cc2)cc1,inactive: -13.9%
